Source: patent US20240114772A1, “ORGANIC ELECTROLUMINESCENT DEVICE” (SFC CO., LTD., priority 2021, published 2024)

Assay: Emission characteristics of solution-processed organic light emitting device
Settings: device with compound as host, dopant <BD> (3 wt %), light emitting layer spin coated from 2 wt % methyl benzoate solution, measured at 10 mA/cm2

SMILES: [2H]c1c([2H])c([2H])c(-c2c3ccccc3c(-c3c(CCC)c4ccccc4c4ccccc34)c3ccccc23)c([2H])c1[2H] [Compound 55]
- Driving voltage (V): 4.48 V
- Efficiency (Cd/A): 4.0 Cd/A

SMILES: CC(C)c1cc(-c2c3ccccc3c(-c3cc4ccccc4c4ccccc34)c3ccccc23)cc(C(C)C)c1 [Compound 46]
- Driving voltage (V): 4.62 V
- Efficiency (Cd/A): 3.8 Cd/A
